Positions count from the first letter of the chain named. The list shows a part of the results. For part of these data: At the low end of the ranking the order means little.
Legend:
Settings in all cases: yeast three-hybrid, YBZ-1, SC-Leu-His + 0.5 mM 3-AT, 4 days
[1] = biological target: T1, PUM1 PUF domain R4-GPA N971G + H972P + Q975A (UniProt Q14671)
T1 sequence: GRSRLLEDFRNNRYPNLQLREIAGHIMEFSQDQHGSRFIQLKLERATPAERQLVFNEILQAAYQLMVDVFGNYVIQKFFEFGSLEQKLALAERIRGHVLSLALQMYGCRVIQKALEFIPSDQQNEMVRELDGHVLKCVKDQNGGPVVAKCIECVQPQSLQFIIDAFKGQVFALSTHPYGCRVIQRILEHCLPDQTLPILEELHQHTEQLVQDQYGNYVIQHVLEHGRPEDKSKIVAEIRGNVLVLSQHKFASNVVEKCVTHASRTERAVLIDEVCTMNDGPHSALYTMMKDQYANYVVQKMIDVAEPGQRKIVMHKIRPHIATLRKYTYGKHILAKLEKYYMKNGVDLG

[2] = biological target: T2, PUM1 PUF domain R4-GPC N971G + H972P + Q975C (UniProt Q14671)
T2 sequence: T1 sequence with A148C

[3] = biological target: T3, PUM1 PUF domain R4-GPG N971G + H972P + Q975G (UniProt Q14671)
T3 sequence: T1 sequence with A148G

[4] = biological target: T4, PUM1 PUF domain R4-GPH N971G + H972P + Q975H (UniProt Q14671)
T4 sequence: T1 sequence with A148H

[5] = biological target: T5, PUM1 PUF domain R4-GPN N971G + H972P + Q975N (UniProt Q14671)
T5 sequence: T1 sequence with A148N

[6] = biological target: T6, PUM1 PUF domain R4-GPQ N971G + H972P (UniProt Q14671)
T6 sequence: T1 sequence with A148Q

[7] = biological target: T7, PUM1 PUF domain R4-GPR N971G + H972P + Q975R (UniProt Q14671)
T7 sequence: T1 sequence with A148R

[8] = biological target: T8, PUM1 PUF domain R4-GPS N971G + H972P + Q975S (UniProt Q14671)
T8 sequence: T1 sequence with A148S

[9] = biological target: T9, PUM1 PUF domain R4-GPT N971G + H972P + Q975T (UniProt Q14671)
T9 sequence: T1 sequence with A148T

[10] = biological target: T10, PUM1 PUF domain R4-GPY N971G + H972P + Q975Y (UniProt Q14671)
T10 sequence: T1 sequence with A148Y

[11] = biological target: T11, PUM1 PUF domain R4-GQG N971G + H972Q + Q975G (UniProt Q14671)
T11 sequence: T1 sequence with P145Q, A148G

[12] = biological target: T12, PUM1 PUF domain R4-GQR N971G + H972Q + Q975R (UniProt Q14671)
T12 sequence: T1 sequence with P145Q, A148R

[13] = biological target: T13, PUM1 PUF domain R4-GQS N971G + H972Q + Q975S (UniProt Q14671)
T13 sequence: T1 sequence with P145Q, A148S

[14] = biological target: T14, PUM1 PUF domain R4-GRA N971G + H972R + Q975A (Homo sapiens) (UniProt Q14671)
T14 sequence: T1 sequence with P145R

[15] = biological target: T15, PUM1 PUF domain R4-GRC N971G + H972R + Q975C (Homo sapiens) (UniProt Q14671)
T15 sequence: T1 sequence with P145R, A148C

[16] = biological target: T16, PUM1 PUF domain R4-GRG N971G + H972R + Q975G (Homo sapiens) (UniProt Q14671)
T16 sequence: T1 sequence with P145R, A148G

[17] = biological target: T17, PUM1 PUF domain R4-GRI N971G + H972R + Q975I (UniProt Q14671)
T17 sequence: T1 sequence with P145R, A148I

[18] = biological target: T18, PUM1 PUF domain R4-GRN N971G + H972R + Q975N (UniProt Q14671)
T18 sequence: T1 sequence with P145R, A148N

[19] = biological target: T19, PUM1 PUF domain R4-GRR N971G + H972R + Q975R (UniProt Q14671)
T19 sequence: T1 sequence with P145R, A148R

[20] = biological target: T20, PUM1 PUF domain R4-GRS N971G + H972R + Q975S (Homo sapiens) (UniProt Q14671)
T20 sequence: T1 sequence with P145R, A148S

[21] = biological target: T21, PUM1 PUF domain R4-GSQ N971G + H972S (UniProt Q14671)
T21 sequence: T1 sequence with P145S, A148Q

[22] = biological target: T22, PUM1 PUF domain R4-GWP N971G + H972W + Q975P (UniProt Q14671)
T22 sequence: T1 sequence with P145W, A148P

[23] = biological target: T23, PUM1 PUF domain R4-GYP N971G + H972Y + Q975P (UniProt Q14671)
T23 sequence: T1 sequence with P145Y, A148P

[24] = biological target: T24, PUM1 PUF domain R4-HNV N971H + H972N + Q975V (UniProt Q14671)
T24 sequence: T1 sequence with G144H, P145N, A148V

[25] = biological target: T25, PUM1 PUF domain R4-HRG N971H + H972R + Q975G (UniProt Q14671)
T25 sequence: T1 sequence with G144H, P145R, A148G

[26] = biological target: T26, PUM1 PUF domain R4-HWP N971H + H972W + Q975P (UniProt Q14671)
T26 sequence: T1 sequence with G144H, P145W, A148P

[27] = biological target: T27, PUM1 PUF domain R4-INC N971I + H972N + Q975C (UniProt Q14671)
T27 sequence: T1 sequence with G144I, P145N, A148C

[28] = biological target: T28, PUM1 PUF domain R4-LGC N971L + H972G + Q975C (UniProt Q14671)
T28 sequence: T1 sequence with G144L, P145G, A148C

[29] = biological target: T29, PUM1 PUF domain R4-LGL N971L + H972G + Q975L (UniProt Q14671)
T29 sequence: T1 sequence with G144L, P145G, A148L

[30] = biological target: T30, PUM1 PUF domain R4-LGM N971L + H972G + Q975M (UniProt Q14671)
T30 sequence: T1 sequence with G144L, P145G, A148M

GGCUAGAACUAGUGGAUCCCCCGGCGCCCGGCGGCUCGAGCCCGGGUAAGUGUAGAUAGUCUGCAUGCCGCCGGGCGCCAUGCCUGCAGGUCGACUCUAGAAAACAUG
binding signal (log2 enrichment (interaction score)) [1]: < -8.22 | binding signal (log2 enrichment (interaction score)) [2]: < -6.02 | binding signal (log2 enrichment (interaction score)) [3]: < -8.64 | binding signal (log2 enrichment (interaction score)) [4]: < -6.65 | binding signal (log2 enrichment (interaction score)) [5]: < -5.44 | binding signal (log2 enrichment (interaction score)) [6]: < -6.18 | binding signal (log2 enrichment (interaction score)) [7]: < -8.3 | binding signal (log2 enrichment (interaction score)) [8]: < -7.29 | binding signal (log2 enrichment (interaction score)) [9]: < -5.78 | binding signal (log2 enrichment (interaction score)) [10]: < -5.6 | binding signal (log2 enrichment (interaction score)) [11]: < -6.89 | binding signal (log2 enrichment (interaction score)) [12]: < -6.61 | binding signal (log2 enrichment (interaction score)) [13]: < -7.69 | binding signal (log2 enrichment (interaction score)) [14]: -3.02 | binding signal (log2 enrichment (interaction score)) [15]: -1.15 | binding signal (log2 enrichment (interaction score)) [16]: -4.17 | binding signal (log2 enrichment (interaction score)) [17]: -5.83 | binding signal (log2 enrichment (interaction score)) [18]: < -5.57 | binding signal (log2 enrichment (interaction score)) [19]: -7.51 | binding signal (log2 enrichment (interaction score)) [20]: -0.94 | binding signal (log2 enrichment (interaction score)) [21]: < -7.05 | binding signal (log2 enrichment (interaction score)) [22]: < -6.3 | binding signal (log2 enrichment (interaction score)) [23]: < -6.8 | binding signal (log2 enrichment (interaction score)) [24]: < -5.74 | binding signal (log2 enrichment (interaction score)) [25]: < -5.85 | binding signal (log2 enrichment (interaction score)) [26]: < -6.3 | binding signal (log2 enrichment (interaction score)) [27]: < -4.9 | binding signal (log2 enrichment (interaction score)) [28]: < -8.45 | binding signal (log2 enrichment (interaction score)) [29]: < -8.6 | binding signal (log2 enrichment (interaction score)) [30]: < -6.61

Source: publication PMC8384837
